# In PubChem BioAssay AID493014 (National Center for Advancing Translational Sciences (NCATS), 2011):
# This is one part of the list. The main result of the screen is listed elsewhere. These columns were measured beside it and carry no call. Most of these compounds were active or inconclusive in the main read-out, so they are no random draw. Potencies come from curve fits of mixed quality, noted in brackets.
# Assay: qHTS Assay to Find Inhibitors of Chronic Active B-Cell Receptor Signaling
# Details: ABC-DLBCL IkBa-CBG/CBR reporter, luminescence ratio (green luciferase fused to IkBa over red control in TMD8 lymphoma cells), 4 h
# Summary of the method: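 Doxycycline induced both beetle luciferases in TMD8 lymphoma cells; IKK-driven degradation limits the IkappaBalpha-fused green signal, while red luminescence normalises for cell number and nonspecific effects. Compounds tested up to 46 uM, 4 hrs.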
# [1] = measured here: CBR red luminescence, cell number
# [2] = measured here: IkBa-CBG green luminescence
Compound,AC50 [1],AC50 [2]
O=C(O)CCCNC(=O)Nc1ccccc1,"4.11 µM [rising, full curve]",
CCOC(=O)c1sc2nc(CC(=O)OC)nc(NCCN3CCOCC3)c2c1C,"16.4 µM [falling, partial curve, poor fit]",
COC(=O)[C@@H]1C[C@@]2(O)[C@H](O)[C@H](O)[C@H](O)C[C@H]2N1CC(c1ccccc1)c1ccccc1,"0.112 µM [rising, full curve, poor fit]",
C=C(C)CSc1nnc(-c2ccc(C)cc2)n1N,"0.58 µM [rising, full curve, poor fit]",
COc1ccc(-c2nnc(SCc3ccccc3F)o2)cc1OC,"10 µM [rising, partial curve, poor fit]",
COc1ccccc1C(=O)NCCn1cc(SCC(=O)NCC2CCCO2)c2ccccc21 (stereo not given),"10 µM [falling, partial curve]",
CCOCCOC(=O)COC(=O)c1ccccc1NC(=O)c1ccccc1,"29.1 µM [falling, single point]",
O=C(Nc1cccc(-c2nc3ncccc3o2)c1)c1ccccc1,"10 µM [falling, single point]",
O=C(NNC(=O)c1n[nH]c(=O)c2ccccc12)c1ccc(Br)cc1,"0.447 µM [rising, full curve, poor fit]",
COc1ccc(-n2cnc3cc(NCc4ccco4)ccc32)cc1,"7.31 µM [rising, partial curve]",
CCOC(=O)Cc1csc(NC(=O)CSc2ncnc3c2cnn3-c2ccccc2Cl)n1,"11.2 µM [falling, partial curve]",
CNCc1c(OCc2ccc(F)cc2)ccc2ccccc12,"15.8 µM [falling, single point]",
CCN(CC)Cc1ccccc1Sc1ccccc1,"16.4 µM [rising, partial curve, poor fit]",
O=C(Nc1ccon1)c1cccc(C(F)(F)F)c1,"16.4 µM [falling, partial curve, poor fit]",
CC(=O)c1sc(NC(=O)c2ccccc2F)nc1-c1ccccc1,"2.51 µM [falling, full curve]",
CCOCCCn1c(SCC(=O)N(C)C2CCS(=O)(=O)C2)nc2ccccc2c1=O (stereo not given),"1.84 µM [rising, partial curve, poor fit]",
CCOC(=O)c1ccc(NC(=O)N2CCc3ccccc3C2)cc1,"2.51 µM [falling, full curve]",
CC(C)C[C@H](CO)N(Cc1ccccc1)S(=O)(=O)N(Cc1ccccc1)[C@@H](CO)CC(C)C,"6.51 µM [falling, partial curve, poor fit]",
Cc1onc(-c2ccccc2Cl)c1C(=O)OCC(=O)c1ccccc1,"5.17 µM [rising, full curve]",
O=c1cc(-c2ccncc2)oc2ccccc12,"35.5 µM [falling, partial curve, poor fit]",
O=C(O)c1cccc(N/N=C/C2=C(Cl)c3cc(Cl)ccc3SC2)c1,"14.1 µM [falling, partial curve]",

# Retrieved by compound from above:
Compound,AC50 [1],AC50 [2]
CNCc1c(OCc2ccc(F)cc2)ccc2ccccc12,"15.8 µM [falling, single point]",
CC(=O)c1sc(NC(=O)c2ccccc2F)nc1-c1ccccc1,"2.51 µM [falling, full curve]",
CCOC(=O)c1ccc(NC(=O)N2CCc3ccccc3C2)cc1,"2.51 µM [falling, full curve]",

# (more compounds)

Compound,AC50 [1],AC50 [2]
COc1ccc(C(=O)/C=C/c2ccc(OC)cc2OC)c(O)c1,"10 µM [falling, partial curve, poor fit]",
O=C(Nc1ccc(F)cc1)Nc1cc(OCC(F)(F)F)cc(OCC(F)(F)F)c1,"20.6 µM [falling, single point]",
O=C(NCc1ccco1)c1ccc2c(c1)N(Cc1ccc(Cl)cc1)C(=O)c1ccccc1S2,"3.55 µM [falling, full curve]",
O=C(Nc1sc2c(c1C(=O)O)CCCC2)c1ccc(Cl)cc1,"0.0794 µM [falling, full curve]",
Nc1cccc2c1C(=O)N(C(=O)c1ccco1)C2=O,"0.112 µM [rising, full curve, poor fit]",
O=C(/C=C/Nc1ccc(F)cc1)c1ccc(Br)cc1,"7.08 µM [falling, full curve]",
CCOC(=O)c1cnc(SCc2nc(N)nc(Nc3ccc(F)cc3)n2)nc1N,"29.1 µM [rising, single point]",
CC(C)(C)CC(=O)NC(=S)NCCc1ccccc1,"1.78 µM [rising, full curve]",
Cc1ccc(C)c(Cn2c(C(=O)OC(C)C)cc3c2ccn3C)c1,"7.08 µM [rising, partial curve]",
CC(C)c1nc(-c2ccccc2)c(-c2ccccc2)[nH]1,"1.3 µM [falling, partial curve, poor fit]",
CN(C)c1cccc(C(=O)NNC(=S)NC2CCCC2)c1,"11.2 µM [falling, partial curve]",
CN(C)S(=O)(=O)c1cccc(NC(=S)N/N=C/C(c2ccccc2)c2ccccc2)c1,"25.9 µM [rising, single point]",
CCOc1ccc(/C=C/[N+](=O)[O-])c2ccccc12,"35.5 µM [rising, single point]","28.2 µM [falling, single point]"
CSc1ccc(S(=O)(=O)NC2CC3CCC2C3)cc1 (stereo not given),"1.12 µM [falling, full curve]",
CCN(Cc1ccccc1)C(=O)C1CCN(Cc2ccc(OC)c(OC)c2OC)CC1,"29.1 µM [falling, single point]",
Cc1ccc(CSc2nc3ccccc3c(=O)n2Cc2ccco2)cc1,"29.1 µM [falling, single point]","23.1 µM [rising, partial curve, poor fit]"
CC1CN(c2nc(-c3ccc(Br)cc3)nnc2-c2ccccc2)CC(C)N1 (stereo not given),"6.31 µM [falling, partial curve]",
Fc1c(F)c(F)c(/C=N/NC(=S)Nc2cccnc2)c(F)c1F,"11.2 µM [falling, partial curve]","15.8 µM [falling, single point]"
CCC(C)NC(=O)c1cn(CCOC)c(=O)c2c1c1ccccc1n2C (stereo not given),"14.1 µM [rising, partial curve, poor fit]",
CC(C)C(=O)N1CCC2(CC1)Oc1ccc(Cl)cc1C(=O)C21CC(c2ccccc2)=NO1 (stereo not given),"20 µM [falling, single point]","35.5 µM [rising, partial curve, poor fit]"
